This data set in a line: general procedure: Fmoc solid-phase peptide synthesis; Rink Amide MBHA ([…]); DIC/HOAt. The following applies: conjugation step; for final HPLC purity / purity (crude or final not stated): 220/254 nm, HPLC.
Where [1] appears, read: bicyclic, sequence written open.

HELM strings list residues between dots; [ac] is acetyl, [am] amide, other brackets name non-standard units.

Consider MMAE-PABC-Cit-Val-Glutaryl-BCY8269, for which, under setting [1], the “final HPLC purity” value was 96.8% and the conjugation yield is reported as 48.18%.

With MMAE-PABC-Cit-Val-Glutaryl-BCY8273, under setting [1], the “final HPLC purity” value is given as 95.7% and the conjugation yield is given as 34.74%.

Turning to MMAE-PABC-Cit-Val-Glutaryl-BCY8235, under setting [1], the “final HPLC purity” value came out at 96.4%, the “purity (crude or final not stated)” value was found to be 99.40% and the conjugation yield is reported as 25.94%.

MMAE-PABC-Cit-Val-Glutaryl-BCY8231: under setting [1], the “final HPLC purity” value is given as 96.9%, the “purity (crude or final not stated)” value stood at 97.00% and the conjugation yield is given as 33.17%.

Regarding MMAE-PABC-Cit-Val-Glutaryl-BCY8232, under setting [1], the “final HPLC purity” value is recorded as 99.4% and the conjugation yield worked out at 33.70%.

For the substance MMAE-PABC-Cit-Val-Glutaryl-BCY7556, under setting [1], the “final HPLC purity” value amounted to 99.6% and the conjugation yield is given as 28.39%.

With MMAE-PABC-Cit-Val-Glutaryl-BCY8234, under setting [1], the “final HPLC purity” value is 99.30% and the “purity (crude or final not stated)” value is 99.60%.

On to “PEPTIDE1{[MMAE-PABC-Cit-Val-Glutaryl].[bAla].[Sar].[Sar].[Sar].[Sar].[Sar].[Sar].[Sar].[Sar].[Sar].[Sar].C.P.F.[dD].C.M.[HArg].N.W.S.T.P.I.W.C.[am]}|CHEM1{[TATA]}$PEPTIDE1,CHEM1,13:R3-1:R1|PEPTIDE1,CHEM1,17:R3-1:R2|PEPTIDE1,CHEM1,27:R3-1:R3$$$V2.0”, for which the conjugation yield is given as 31.22%, the “final HPLC purity” value worked out at 99.0% and the “purity (crude or final not stated)” value worked out at 98.40%.

The values above are taken from patent publication US12459974B2 (priority 2018, dated 2025).
